log2 fold change data for 34 targets are collected here from the supplement of paper PMC10849652.

The chains behind the UniProt entries cited, without tags or fusion partners. Where a name states a change or a piece, a line headed by the entry shows the natural chain unless it says otherwise.
UniProt Q8N6D5: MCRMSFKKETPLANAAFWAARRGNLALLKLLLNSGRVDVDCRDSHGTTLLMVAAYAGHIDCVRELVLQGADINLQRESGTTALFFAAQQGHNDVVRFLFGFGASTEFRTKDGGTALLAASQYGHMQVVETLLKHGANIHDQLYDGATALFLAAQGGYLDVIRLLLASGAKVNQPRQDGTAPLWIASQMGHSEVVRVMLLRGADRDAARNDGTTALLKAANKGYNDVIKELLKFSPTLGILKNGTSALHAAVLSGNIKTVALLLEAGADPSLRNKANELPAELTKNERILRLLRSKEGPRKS
UniProt Q9H8T0: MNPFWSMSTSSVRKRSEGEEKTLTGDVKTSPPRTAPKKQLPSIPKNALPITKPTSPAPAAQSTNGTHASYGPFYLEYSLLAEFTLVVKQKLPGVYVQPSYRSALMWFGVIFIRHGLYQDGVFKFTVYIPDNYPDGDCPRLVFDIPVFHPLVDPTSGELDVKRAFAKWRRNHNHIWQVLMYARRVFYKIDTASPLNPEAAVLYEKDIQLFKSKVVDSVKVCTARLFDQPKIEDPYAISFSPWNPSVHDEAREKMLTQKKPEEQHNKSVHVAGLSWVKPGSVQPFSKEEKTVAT
UniProt O14617: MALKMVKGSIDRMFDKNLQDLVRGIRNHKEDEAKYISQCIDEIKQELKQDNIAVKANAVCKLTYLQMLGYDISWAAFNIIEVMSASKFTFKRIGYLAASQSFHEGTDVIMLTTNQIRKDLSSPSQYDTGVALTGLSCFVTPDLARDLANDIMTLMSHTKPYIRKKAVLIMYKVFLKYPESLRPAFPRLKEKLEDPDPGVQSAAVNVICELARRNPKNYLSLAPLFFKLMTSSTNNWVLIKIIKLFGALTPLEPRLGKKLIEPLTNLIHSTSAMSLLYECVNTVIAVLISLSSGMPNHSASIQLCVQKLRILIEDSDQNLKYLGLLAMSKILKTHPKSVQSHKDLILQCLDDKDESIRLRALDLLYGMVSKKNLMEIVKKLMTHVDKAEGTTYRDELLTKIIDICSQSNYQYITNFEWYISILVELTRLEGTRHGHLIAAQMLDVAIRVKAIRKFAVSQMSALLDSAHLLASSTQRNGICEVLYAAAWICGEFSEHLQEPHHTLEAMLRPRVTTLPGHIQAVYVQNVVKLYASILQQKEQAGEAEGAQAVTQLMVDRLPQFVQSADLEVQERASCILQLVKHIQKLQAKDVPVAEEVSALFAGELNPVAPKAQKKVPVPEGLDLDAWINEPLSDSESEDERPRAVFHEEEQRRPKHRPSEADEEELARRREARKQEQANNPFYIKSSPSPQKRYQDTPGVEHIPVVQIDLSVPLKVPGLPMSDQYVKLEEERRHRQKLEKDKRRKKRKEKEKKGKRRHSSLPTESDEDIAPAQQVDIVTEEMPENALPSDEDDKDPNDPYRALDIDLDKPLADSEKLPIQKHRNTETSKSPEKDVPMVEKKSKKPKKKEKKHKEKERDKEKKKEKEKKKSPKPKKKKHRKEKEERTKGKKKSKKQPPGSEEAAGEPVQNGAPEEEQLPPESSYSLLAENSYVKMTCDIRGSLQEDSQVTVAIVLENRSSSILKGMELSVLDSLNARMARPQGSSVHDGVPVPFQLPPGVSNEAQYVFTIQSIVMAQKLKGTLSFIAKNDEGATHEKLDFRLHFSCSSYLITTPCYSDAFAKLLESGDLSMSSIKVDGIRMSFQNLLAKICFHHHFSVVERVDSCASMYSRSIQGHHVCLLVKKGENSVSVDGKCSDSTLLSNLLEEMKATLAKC
UniProt Q8IWZ3: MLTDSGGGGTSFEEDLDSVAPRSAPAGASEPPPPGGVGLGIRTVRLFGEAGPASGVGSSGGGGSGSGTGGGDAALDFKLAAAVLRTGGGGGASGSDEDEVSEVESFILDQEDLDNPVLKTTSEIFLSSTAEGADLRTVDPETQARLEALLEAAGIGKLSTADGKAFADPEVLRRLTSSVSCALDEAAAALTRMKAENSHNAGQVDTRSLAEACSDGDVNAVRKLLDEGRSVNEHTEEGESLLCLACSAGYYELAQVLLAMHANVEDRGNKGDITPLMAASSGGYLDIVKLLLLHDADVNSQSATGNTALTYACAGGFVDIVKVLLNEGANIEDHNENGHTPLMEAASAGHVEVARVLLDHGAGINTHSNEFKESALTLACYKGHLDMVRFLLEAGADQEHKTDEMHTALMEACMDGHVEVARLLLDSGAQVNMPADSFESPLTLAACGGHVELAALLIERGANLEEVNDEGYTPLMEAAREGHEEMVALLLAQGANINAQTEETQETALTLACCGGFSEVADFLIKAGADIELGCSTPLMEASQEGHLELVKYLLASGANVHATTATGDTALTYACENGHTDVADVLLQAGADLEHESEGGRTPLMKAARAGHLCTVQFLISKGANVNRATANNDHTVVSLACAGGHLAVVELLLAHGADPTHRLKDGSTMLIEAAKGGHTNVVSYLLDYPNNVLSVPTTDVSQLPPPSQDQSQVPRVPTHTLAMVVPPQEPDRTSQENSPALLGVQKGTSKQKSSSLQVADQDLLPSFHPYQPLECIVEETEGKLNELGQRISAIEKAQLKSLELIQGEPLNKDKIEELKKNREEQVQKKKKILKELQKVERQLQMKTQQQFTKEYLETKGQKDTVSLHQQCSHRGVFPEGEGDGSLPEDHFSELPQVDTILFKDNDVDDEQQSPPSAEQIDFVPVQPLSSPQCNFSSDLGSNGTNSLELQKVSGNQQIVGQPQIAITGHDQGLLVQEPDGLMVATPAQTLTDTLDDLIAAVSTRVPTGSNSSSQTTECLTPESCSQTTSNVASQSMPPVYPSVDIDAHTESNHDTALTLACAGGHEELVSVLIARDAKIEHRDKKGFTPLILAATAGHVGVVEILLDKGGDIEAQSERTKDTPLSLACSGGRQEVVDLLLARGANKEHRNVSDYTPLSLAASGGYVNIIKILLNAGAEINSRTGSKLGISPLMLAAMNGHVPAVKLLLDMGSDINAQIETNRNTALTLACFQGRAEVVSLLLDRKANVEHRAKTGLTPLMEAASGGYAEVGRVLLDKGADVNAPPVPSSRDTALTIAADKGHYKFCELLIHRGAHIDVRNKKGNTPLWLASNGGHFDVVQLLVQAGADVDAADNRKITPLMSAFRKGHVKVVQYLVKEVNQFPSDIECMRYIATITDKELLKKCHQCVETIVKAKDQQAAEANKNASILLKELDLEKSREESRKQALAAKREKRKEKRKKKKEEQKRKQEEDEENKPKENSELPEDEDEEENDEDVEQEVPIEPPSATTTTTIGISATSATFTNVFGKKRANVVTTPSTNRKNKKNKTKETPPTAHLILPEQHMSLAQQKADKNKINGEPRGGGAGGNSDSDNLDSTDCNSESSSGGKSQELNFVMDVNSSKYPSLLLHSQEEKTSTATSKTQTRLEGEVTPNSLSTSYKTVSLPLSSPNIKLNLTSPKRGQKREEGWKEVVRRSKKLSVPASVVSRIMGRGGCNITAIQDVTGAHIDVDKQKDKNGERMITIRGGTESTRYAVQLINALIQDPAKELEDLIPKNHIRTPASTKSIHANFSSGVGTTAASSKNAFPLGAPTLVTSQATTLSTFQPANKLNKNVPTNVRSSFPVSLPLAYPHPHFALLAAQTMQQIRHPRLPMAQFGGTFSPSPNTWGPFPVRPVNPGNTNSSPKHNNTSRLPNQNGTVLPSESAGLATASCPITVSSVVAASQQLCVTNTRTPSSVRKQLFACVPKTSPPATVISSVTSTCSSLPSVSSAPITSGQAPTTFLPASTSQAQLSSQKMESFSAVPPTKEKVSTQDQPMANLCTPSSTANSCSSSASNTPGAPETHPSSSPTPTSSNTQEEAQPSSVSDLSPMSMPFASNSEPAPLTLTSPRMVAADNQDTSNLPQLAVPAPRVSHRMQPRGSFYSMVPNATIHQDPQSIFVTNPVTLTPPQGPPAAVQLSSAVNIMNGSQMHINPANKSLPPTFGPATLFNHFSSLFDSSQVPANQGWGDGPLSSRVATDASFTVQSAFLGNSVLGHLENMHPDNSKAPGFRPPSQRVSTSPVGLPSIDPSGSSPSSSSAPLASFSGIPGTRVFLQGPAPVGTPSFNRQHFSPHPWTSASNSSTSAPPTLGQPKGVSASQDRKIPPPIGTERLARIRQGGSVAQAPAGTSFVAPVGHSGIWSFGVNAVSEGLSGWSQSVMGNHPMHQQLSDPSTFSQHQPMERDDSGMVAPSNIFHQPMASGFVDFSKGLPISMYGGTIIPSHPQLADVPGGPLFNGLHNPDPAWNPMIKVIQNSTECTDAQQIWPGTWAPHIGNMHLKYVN
UniProt O00189: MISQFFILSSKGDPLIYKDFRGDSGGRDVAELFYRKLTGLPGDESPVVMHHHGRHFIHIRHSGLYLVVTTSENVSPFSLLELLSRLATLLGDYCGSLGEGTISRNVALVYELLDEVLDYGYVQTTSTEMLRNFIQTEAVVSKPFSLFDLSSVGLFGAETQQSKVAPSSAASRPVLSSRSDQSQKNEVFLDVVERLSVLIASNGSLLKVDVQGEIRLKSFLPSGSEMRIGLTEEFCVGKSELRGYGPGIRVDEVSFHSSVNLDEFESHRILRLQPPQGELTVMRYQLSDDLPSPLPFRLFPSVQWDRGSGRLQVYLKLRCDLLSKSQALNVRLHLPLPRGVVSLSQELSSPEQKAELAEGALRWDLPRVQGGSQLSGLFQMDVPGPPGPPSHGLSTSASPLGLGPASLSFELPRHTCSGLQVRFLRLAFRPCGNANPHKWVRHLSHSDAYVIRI
UniProt P49189: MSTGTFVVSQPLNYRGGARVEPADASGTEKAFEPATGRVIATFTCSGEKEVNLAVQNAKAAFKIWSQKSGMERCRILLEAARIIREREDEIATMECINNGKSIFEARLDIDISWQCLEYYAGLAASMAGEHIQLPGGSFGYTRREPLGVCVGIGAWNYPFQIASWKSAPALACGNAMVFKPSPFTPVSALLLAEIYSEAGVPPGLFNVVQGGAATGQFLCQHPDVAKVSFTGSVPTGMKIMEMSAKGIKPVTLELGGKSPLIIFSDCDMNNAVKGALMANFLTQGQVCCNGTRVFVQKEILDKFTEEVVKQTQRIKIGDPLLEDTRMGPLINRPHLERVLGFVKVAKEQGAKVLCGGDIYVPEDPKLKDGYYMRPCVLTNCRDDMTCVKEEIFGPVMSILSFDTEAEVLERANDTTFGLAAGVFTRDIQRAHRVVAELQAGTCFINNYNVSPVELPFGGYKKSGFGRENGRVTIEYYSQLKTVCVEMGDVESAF
UniProt Q9NYG5, whole entry, looked up: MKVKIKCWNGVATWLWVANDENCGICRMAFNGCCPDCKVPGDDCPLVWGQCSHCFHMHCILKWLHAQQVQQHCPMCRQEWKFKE
UniProt Q86XL3: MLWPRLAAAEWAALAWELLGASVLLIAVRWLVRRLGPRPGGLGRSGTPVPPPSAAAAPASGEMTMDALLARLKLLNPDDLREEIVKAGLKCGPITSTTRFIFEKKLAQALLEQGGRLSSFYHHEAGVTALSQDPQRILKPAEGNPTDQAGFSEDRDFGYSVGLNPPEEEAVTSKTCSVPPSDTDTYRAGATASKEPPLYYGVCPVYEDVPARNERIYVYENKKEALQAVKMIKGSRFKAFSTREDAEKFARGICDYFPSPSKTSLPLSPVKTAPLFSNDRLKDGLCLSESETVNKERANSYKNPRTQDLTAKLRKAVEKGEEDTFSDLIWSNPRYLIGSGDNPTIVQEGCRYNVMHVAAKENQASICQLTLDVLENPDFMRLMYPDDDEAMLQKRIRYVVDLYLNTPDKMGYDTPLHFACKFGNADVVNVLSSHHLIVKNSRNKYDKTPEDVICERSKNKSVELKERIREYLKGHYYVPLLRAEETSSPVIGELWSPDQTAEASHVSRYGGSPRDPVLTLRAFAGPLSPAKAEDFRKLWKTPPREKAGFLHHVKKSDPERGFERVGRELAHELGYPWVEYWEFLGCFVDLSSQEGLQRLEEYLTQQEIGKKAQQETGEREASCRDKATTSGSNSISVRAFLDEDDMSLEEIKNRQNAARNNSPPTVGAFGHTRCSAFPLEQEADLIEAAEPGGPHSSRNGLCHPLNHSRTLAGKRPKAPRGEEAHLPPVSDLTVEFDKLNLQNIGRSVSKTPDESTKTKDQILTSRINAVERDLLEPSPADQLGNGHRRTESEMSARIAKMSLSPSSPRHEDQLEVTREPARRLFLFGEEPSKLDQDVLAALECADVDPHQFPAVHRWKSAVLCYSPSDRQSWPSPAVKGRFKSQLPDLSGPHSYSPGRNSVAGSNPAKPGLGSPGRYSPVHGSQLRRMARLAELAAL

Some of the results follow.

Compound in the first experiment: CC[C@@H]1C(=O)N(C)c2cnc(Nc3ccc(C(=O)N[C@H]4CC[C@H](N5CCN(CC6CC6)CC5)CC4)cc3OC)nc2N1C(C)C [volasertib]
Briefly: log2 fold change, soluble protein after heating vs DMSO (PISA); higher = thermal stabilisation; K562 lysate, 10 uM; active = over 0.2 and 3.5 SD of the protein, either way, in both replicates (recomputed). The method in brief:
(§1)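 K562 pellets were dounce-homogenised in PBS pH 7.4 with 1 mM MgCl2, and the crude extract at 1 mg/mL protein was treated with 10 μM compound for 30 min. Aliquots were heated for 3 min across 48°C-58°C, pooled, and brought to 0.5% NP-40 at 4°C; soluble protein was the supernatant after 21,000xg for 90 min. Soluble protein was quantified by TMTpro 16plex LC-MS/MS with channel sums equalised, and reported as log2 fold change in thermal stability against DMSO controls, with values from duplicates.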
Regarding ALAS1 (UniProt P13196), the log2 fold change was inactive: -0.017.
As to AMBRA1 isoform 5 (UniProt Q9C0C7), the log2 fold change was inactive: -0.039.
With ANKRD31 (UniProt Q8N7Z5), the log2 fold change is inactive: -0.011.
For ANKRD29 (UniProt Q8N6D5), the log2 fold change was inactive: -0.016.
As for ANKRD30A (UniProt Q9BXX3), the log2 fold change was inactive: -0.08.
As to ANAPC16 (UniProt Q96DE5), the log2 fold change is inactive: 0.003.
Still for that read-out and setting: the figure for ANKRD44 isoform 2 (UniProt Q8N8A2) is inactive: 0.054.
As to ANXA6 (UniProt E5RK69), the log2 fold change is inactive: -0.108.
For ANGPTL4 (UniProt M0R3A2), the log2 fold change was inactive: -0.176.
For the target AKTIP isoform 2 (UniProt Q9H8T0), the log2 fold change is inactive: -0.116.
On to AP2S1 (UniProt M0QZ21), for which the log2 fold change is inactive: -0.081.
On to ANKHD1 (UniProt D6RHC4), for which the log2 fold change was inactive: -0.093.
Take ANKRD50 (UniProt Q9ULJ7): the log2 fold change was inactive: 0.008.
On to ANKH (UniProt Q9HCJ1), for which the log2 fold change is inactive: -0.072.
As to ANKRD16 (UniProt Q6P6B7), the log2 fold change is inactive: 0.1.
For AP3M2 (UniProt P53677), the log2 fold change is inactive: -0.037.
On to ANKS3 (UniProt Q6ZW76), for which the log2 fold change is inactive: 0.018.
On to ALG12 (UniProt Q9BV10), for which the log2 fold change is inactive: 0.02.
As to AP3D1 isoform 2 (UniProt O14617), the log2 fold change was inactive: -0.012.
ALDH3A1 (UniProt P30838): the log2 fold change is inactive: 0.035.
With ALDOA (UniProt H3BPS8), the log2 fold change is inactive: 0.094.
The same measure, in the same setting: the figure for ALG3 (UniProt Q92685) is inactive: 0.01.

Compound in another experiment: CCn1c(C(=O)N(C2CC2)C2CC2)cc2c3c(ncn3C)c(Nc3cc(C)n(C)n3)nc21
The description is as above. The method in brief:
as §1
ALAS1 (UniProt P13196): the log2 fold change is inactive: 0.008.
Same read-out and setting: the figure for AMBRA1 isoform 5 (UniProt Q9C0C7) is inactive: 0.012.
As for ALG11 (UniProt Q2TAA5), the log2 fold change is inactive: 0.096.
With ANKRD13C (UniProt Q8N6S4), the log2 fold change was inactive: -0.07.
Regarding ANKRD30A (UniProt Q9BXX3), the log2 fold change was inactive: 0.152.
Take ANKRD40 (UniProt Q6AI12): the log2 fold change is inactive: -0.066.
In the case of ANAPC16 (UniProt Q96DE5), the log2 fold change is inactive: 0.124.
With ANGPTL4 (UniProt M0R3A2), the log2 fold change is inactive: 0.068.
Take AKTIP isoform 2 (UniProt Q9H8T0): the log2 fold change was inactive: 0.234.
For the target ANKHD1 isoform 2 (UniProt Q8IWZ3), the log2 fold change was inactive: 0.08.
On to ANKHD1 (UniProt D6RHC4), for which the log2 fold change is inactive: 0.027.
Take ANKRD50 (UniProt Q9ULJ7): the log2 fold change was inactive: 0.069.
Consider AP4M1 (UniProt O00189), for which the log2 fold change is inactive: -0.018.
The same measure, in the same setting: the figure for AMOTL1 (UniProt Q8IY63) is inactive: -0.047; for ALDH9A1 (UniProt P49189) it is inactive: -0.014; for ANKH (UniProt Q9HCJ1) it is inactive: 0.016.
For ANAPC11 (UniProt Q9NYG5), the log2 fold change was inactive: 0.016.
As to ANKLE2 (UniProt Q86XL3), the log2 fold change was inactive: 0.029.
Take AP3M2 (UniProt P53677): the log2 fold change is inactive: 0.014.
As for ALOX12B (UniProt O75342), the log2 fold change was inactive: -0.043.
Turning to AP1B1 isoform 3 (UniProt Q10567), the log2 fold change is inactive: 0.109.
Still for that read-out and setting: the figure for ALG12 (UniProt Q9BV10) is inactive: 0.008; for ALDH3A1 (UniProt P30838) it is inactive: -0.399; for ALG3 (UniProt Q92685) it is inactive: 0.032.
As for ANK2 (UniProt Q01484), the log2 fold change was inactive: 0.027.
